Source: PMC9465852
For at least one entry, the source does not settle the construct or the ends of the probe. At least one verdict rests on a figure or table, not on a statement of the authors.

Protein sequences, listed by entry. Tags and fused reporters are not part of them. Lines headed by an entry give the natural chain unless they say otherwise; changes in a name come on top.
UniProt Q91572: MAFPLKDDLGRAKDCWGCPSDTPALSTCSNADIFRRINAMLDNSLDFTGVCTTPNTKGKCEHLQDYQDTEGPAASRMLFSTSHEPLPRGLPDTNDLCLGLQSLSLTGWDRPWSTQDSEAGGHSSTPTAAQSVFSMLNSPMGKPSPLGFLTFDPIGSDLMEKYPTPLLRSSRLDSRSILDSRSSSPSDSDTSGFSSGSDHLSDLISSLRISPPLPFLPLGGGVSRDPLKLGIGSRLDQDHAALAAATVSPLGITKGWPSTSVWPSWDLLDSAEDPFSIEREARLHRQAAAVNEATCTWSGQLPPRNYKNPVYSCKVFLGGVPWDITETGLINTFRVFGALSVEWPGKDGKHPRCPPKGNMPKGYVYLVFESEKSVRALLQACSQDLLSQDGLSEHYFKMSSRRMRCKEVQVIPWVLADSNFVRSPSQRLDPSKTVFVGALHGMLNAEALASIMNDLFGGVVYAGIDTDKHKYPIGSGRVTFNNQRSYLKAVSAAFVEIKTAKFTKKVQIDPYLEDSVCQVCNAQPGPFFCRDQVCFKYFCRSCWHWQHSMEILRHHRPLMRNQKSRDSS

Biological target: CPEB1 (Xenopus laevis) (UniProt Q91572)
Assay: AlphaScreen
Conditions: 50 nM protein, 0.5-75 nM RNA; 3' biotin; 10 mM HEPES pH 7.4, 100 mM KCl, 3 mM MgCl2, 1 mM DTT, 0.2 mg/mL tRNA, 0.1% Tween; room temperature; 50 or 75 nM …; recombinant protein; protein details: 6xHis; label: 3' biotin

AGUGUACAGUGUUUUUAAUAGUUUGUUG [CPE-A]
binding result: binds
